From ChEMBL document CHEMBL3988442, “University of Dundee, Small-Polar-MMV Screening Library” (2021).

Protein sequences, listed by entry. Tags and fused reporters are not part of them. Residues count along the entry.
UniProt P9WPC5, whole entry: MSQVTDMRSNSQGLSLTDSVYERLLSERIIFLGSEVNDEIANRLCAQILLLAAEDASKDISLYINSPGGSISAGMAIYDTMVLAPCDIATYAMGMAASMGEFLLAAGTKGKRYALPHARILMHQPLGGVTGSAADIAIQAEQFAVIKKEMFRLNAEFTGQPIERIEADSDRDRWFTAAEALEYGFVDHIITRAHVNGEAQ
UniProt P9WPC3, whole entry partner: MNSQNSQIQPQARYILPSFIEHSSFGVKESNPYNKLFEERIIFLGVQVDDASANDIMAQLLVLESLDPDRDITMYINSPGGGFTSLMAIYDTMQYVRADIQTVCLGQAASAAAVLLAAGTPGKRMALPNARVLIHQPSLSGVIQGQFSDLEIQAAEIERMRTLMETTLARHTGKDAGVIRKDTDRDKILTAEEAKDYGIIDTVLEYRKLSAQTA
UniProt Q4DA54, 1-478: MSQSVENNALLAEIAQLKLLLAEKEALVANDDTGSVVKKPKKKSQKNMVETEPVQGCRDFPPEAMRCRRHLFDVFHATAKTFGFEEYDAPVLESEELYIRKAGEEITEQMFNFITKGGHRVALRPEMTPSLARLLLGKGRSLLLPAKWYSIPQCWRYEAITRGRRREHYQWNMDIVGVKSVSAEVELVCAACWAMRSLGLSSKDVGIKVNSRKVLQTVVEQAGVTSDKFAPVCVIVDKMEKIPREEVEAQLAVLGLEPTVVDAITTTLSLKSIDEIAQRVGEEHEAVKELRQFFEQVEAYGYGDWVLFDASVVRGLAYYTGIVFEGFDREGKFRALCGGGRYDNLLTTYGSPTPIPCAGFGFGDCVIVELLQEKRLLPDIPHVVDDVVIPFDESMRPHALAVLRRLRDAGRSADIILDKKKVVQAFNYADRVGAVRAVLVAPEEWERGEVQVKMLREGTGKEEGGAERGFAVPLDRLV
UniProt P9WNZ1, whole entry: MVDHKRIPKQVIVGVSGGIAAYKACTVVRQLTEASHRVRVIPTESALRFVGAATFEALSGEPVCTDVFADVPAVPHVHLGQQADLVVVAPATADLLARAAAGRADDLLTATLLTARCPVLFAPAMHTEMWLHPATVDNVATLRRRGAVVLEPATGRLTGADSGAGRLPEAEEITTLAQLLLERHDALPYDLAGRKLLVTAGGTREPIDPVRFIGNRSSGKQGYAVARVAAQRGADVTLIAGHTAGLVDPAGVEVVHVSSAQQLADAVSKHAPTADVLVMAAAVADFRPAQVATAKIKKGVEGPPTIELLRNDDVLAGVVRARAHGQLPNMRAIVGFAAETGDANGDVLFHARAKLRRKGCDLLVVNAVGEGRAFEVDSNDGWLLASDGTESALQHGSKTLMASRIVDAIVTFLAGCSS

Each number is a percent effect as filed.
The controls that fix the scale are not given in the record; negative values are as filed.
Compounds were drawn at random from those tested, without regard to their results.
A dash means the value is not listed here; it may have been measured.

ClpP1P2: 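Protease assay of ClpP1P2, read by the AMC dye that it sets free. Target: ClpP1P2, Mycobacterium tuberculosis (UniProt P9WPC5 and UniProt P9WPC3). Concentration: 50 µM. Direction is inferred from only a few compounds that gave an IC50; most scored high, so higher reads as stronger inhibition. Most other retested compounds had strongly negative values. Of about 69,000 compounds tested this way, about 10 (0.015%) reached 50% or more in at least one test.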
Toxoplasma: 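Assay of Toxoplasma gondii numbers, read through their beta-galactosidase reporter with a colour substrate. Tested at 10 µM. Higher reads as fewer parasites (inferred from which compounds were picked for retests). Size under these conditions: about 67,000 compounds, about 260 of them at 50% or above in at least one test.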
Leishmania in macrophages: 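Cell assay of Leishmania donovani living inside macrophages; the read-out is not stated. Compounds at 30 µM. The record gives no direction; compounds that gave an IC50 in retests scored well above the rest, so higher reads as stronger inhibition. Size under these conditions: about 69,000 compounds, about 1,000 of them at 50% or above in at least one test.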
TcHisRS: 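Histidine-tRNA ligase, Trypanosoma cruzi CL Brener (UniProt Q4DA54). Enzyme assay of histidyl-tRNA synthetase; the read-out is not stated. Tested at 30 µM. Direction is inferred from retests: higher values go with stronger inhibition. About 69,000 compounds were tested under these conditions; 0.045% (about 31) showed 50% or more at least once.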
CoaBC: 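Coenzyme A biosynthesis protein CoaBC, Mycobacterium tuberculosis (UniProt P9WNZ1). Enzyme assay of CoaBC with a phosphate dye (Biomol Green) read at 650 nm. Concentration: 30 µM. Direction is inferred from only a few compounds that gave an IC50; most scored high, so higher reads as stronger inhibition. Most strong results did not repeat in a second test. Size under these conditions: about 67,000 compounds, about 40 of them at 50% or above in at least one test.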

structure,ClpP1P2,Toxoplasma,Leishmania in macrophages,TcHisRS,CoaBC
CCN1CCN(C(=O)c2c[nH]c(C(C)C)n2)c2ccccc21,-3.54,1.795,7.788,0.5236,-1.071
Cc1csc(C2NC3(CCCC3)C(=O)N2CC2CC2)n1 (stereo not drawn),-3.934,6.089,42.74,0,5.166
CCCC(C)CS(=O)(=O)NCc1cccnc1OC (stereo not drawn),-5.821,3.244,3.429,3.093,4.176
CC(C)C(O)CNC(=O)Nc1cnn(C(C)C)c1 (stereo not drawn),-2.388,3.523,3.722,8.333,-8.949
O=C(CC1CC1)N1CCC2(CC1)CN(c1ccsc1)C(=O)CO2,5.142,-23.34,-0.6018,-47.06,-5.25
CCOc1ncccc1NC(=O)N1CCN(Cc2ccncc2)CC1,-18.74,19.46,26.8,7.289,8.593
O=C(OCCNc1ncccn1)c1ccc(Cl)s1,-12.93,0.1003,30.79,7.143,2.061
Cc1nn(C)c(N(C)C)c1CNCc1ccc2c(c1)OCO2,13.99,10.51,-19.5,2.89,0.3911
CCN(c1ccc(C(=O)N2CCCCC2)cc1)S(=O)(=O)CC,-4.624,13.97,-6.229,0.5025,1.564
CN(C)C(=O)N1CCN(CCCc2ccccc2)[C@H]2CS(=O)(=O)C[C@H]21,-0.7356,-,-,4.082,1.587
CN(C)c1ccc(CN(CCCn2ccnc2)Cc2c[nH]cn2)cc1.O=C(O)CC(O)(CC(=O)O)C(=O)O,-,12.88,-1.99,-,-
O=C(CCc1nnc(-c2ccccc2)o1)N1CCCC1c1ccccn1 (stereo not drawn),-15.19,-5.626,-6.614,-0.5525,19.42
CCOc1ccc(S(=O)(=O)NC(=O)c2c(C)noc2C(C)C)cc1,-9.472,6.173,-3.62,3.333,-2.316
Cc1cccnc1CCNC(=O)[C@@]12CNC[C@@H]1CN(S(C)(=O)=O)C2,-10.32,-,-,3.665,16.26
COc1cccc(CC(=O)N2CCCC(n3nc(C)cc3C)C2)c1 (stereo not drawn),-12.92,-3.749,14.15,2.857,4.724
O=C(Nc1ccc2ncccc2c1)C1CC(=O)N(Cc2ccccn2)C1 (stereo not drawn),-13.38,5.051,-2.463,1.667,4
Cc1ccc(N2CCCC(N3CCC(N(C)C)CC3)C2=O)cc1 (stereo not drawn),9.851,-0.3743,0.5447,6.897,-7.269
Cc1ccn(-c2ccc(C(=O)N3CCCC(n4ccnc4)C3)cc2)n1 (stereo not drawn),0.8797,-,16.81,3.008,1.285
O=C(CN1CCCC1Cn1cncn1)NCCOc1ccccc1 (stereo not drawn),-40.42,-40.35,-7.692,8.092,4.725
Cn1c(C(N)=O)ccc1-c1ccccc1,5.155,-0.12,8.206,2.521,1.21
c1ccc(CN2CCCC3(CCN(Cc4cccs4)C3)C2)nc1 (stereo not drawn),-0.1398,-,-,4.327,4.471
CN(C)C(=O)c1cccnc1-c1ccc2c(c1)OCO2,12.93,-7.334,11.7,5.682,4.069
O=C1CN(c2ccc(CNC(=O)c3cccnc3O)cc2F)CCN1,-8.504,9.138,15.34,0,1.711
Cc1ccc(CN(Cc2cc(C)no2)C2CC2)cc1,-6.816,-1.193,-4.924,4.386,9.529
CCc1ccc(-c2cn3c(C(=O)NCC(C)C(=O)NC)csc3n2)cc1 (stereo not drawn),-3.528,-10.36,22.78,6.383,7.992
O=C1COC2(CCN(c3ncccn3)CC2)CN1,-0.3629,-,-,0,7.128
Cn1cc(CC(=O)N2CCCC(c3cc(C(F)(F)F)[nH]n3)C2)cn1 (stereo not drawn),-1.236,-4.48,18.49,0.5291,-0.1988
CCc1nc(N2CCCN(c3ncccn3)CC2)c2cnn(C)c2n1,-4.339,-10.38,3.792,4,9.74
OCc1cccc(CNCc2cccc3c2OCCO3)c1,0.2862,-,18.75,1.98,-2.795
Cc1cnccc1-c1cnn(CCNC(=O)c2ccccn2)c1C1CC1,-17.61,-,-,11.65,1.865
Cc1ccc(CN2CCOC3(COCCN(Cc4ccncc4)C3)C2)o1.O=C(O)C(F)(F)F.O=C(O)C(F)(F)F.O=C(O)C(F)(F)F (stereo not drawn),-,8.803,5.942,-,-
COc1ccc(CC(=O)N2CC[C@@H]3NC(=O)CC[C@@H]32)cc1,-0.333,-,-,6.452,-1.903
O=C(CC(F)(F)F)N1CCCC(c2nccn2Cc2ccncc2)C1 (stereo not drawn),-9.494,16.69,29.7,-2.041,2.303
CCOCCOC(C)C(=O)Nc1ccc2ccn(CC(=O)NC)c2c1 (stereo not drawn),-16.2,-12.59,7.708,6.25,4.833
CCS(=O)(=O)NCCNc1c(C#N)cnc2c(F)cc(F)cc12,-5.336,-2.973,-12.07,-1.478,4.194
CCCC(=O)NC1CCc2c(ccc(=O)n2Cc2csc(C)n2)C1 (stereo not drawn),5.502,-,-,-1.105,2.723
O=C(O)C(F)(F)F.O=C(O)C(F)(F)F.c1cncc(CN2CCOC(c3ncn4c(C5CC5)cccc34)C2)c1 (stereo not drawn),-,-6.203,1.147,-,-
Cc1cccc(C(=O)NCCNS(=O)(=O)c2cccs2)c1C,-9.577,3.898,19.87,0.4926,3.797
Cc1nc(C)n(C2CCCN(C(=O)c3cnc[nH]3)C2)n1 (stereo not drawn),6.063,-4.882,16.25,1.504,-1.779

5 of the entries, repeated:

structure,ClpP1P2,Toxoplasma,Leishmania in macrophages,TcHisRS,CoaBC
Cn1c(C(N)=O)ccc1-c1ccccc1,5.155,-0.12,8.206,2.521,1.21
CCN(c1ccc(C(=O)N2CCCCC2)cc1)S(=O)(=O)CC,-4.624,13.97,-6.229,0.5025,1.564
CCS(=O)(=O)NCCNc1c(C#N)cnc2c(F)cc(F)cc12,-5.336,-2.973,-12.07,-1.478,4.194
OCc1cccc(CNCc2cccc3c2OCCO3)c1,0.2862,-,18.75,1.98,-2.795
O=C(OCCNc1ncccn1)c1ccc(Cl)s1,-12.93,0.1003,30.79,7.143,2.061